Structures can show the parent of a compound that is named as a salt. Where two headings read alike, the source gives them in different places. In all, about 3,300 compounds went through this assay and about 95 (3%) showed an effect of 50% or more. The list shows a part of the results.
Test system: HCoV-229E
Design: species or system Huh-7; HTS, protection from HCoV-229E induced cell death, luminescent cell viability (CellCounting-Lite 2.0), inhibition rate
Details: 24 h post infection, 1 h compound pre-incubation, 10 µM, inhibitor

| SMILES | 229E Inhibition rate | 229E Inhibition rate (229E Inhibition rate, 24 h) |
| --- | --- | --- |
| Cc1cc(O[C@@H]2O[C@H](CO)[C@@H](O)[C@H](O)[C@H]2O)c2c(c1)C(=O)c1cccc(O)c1C2=O [Chrysophanein] | 51.1% | – |
| CC1(C)CC[C@]2(C(=O)O)CC[C@]3(C)C(=CC[C@@H]4[C@@]5(C)CC[C@H](O[C@@H]6O[C@H](C(=O)O)[C@@H](O)[C@H](O[C@@H]7OC[C@@H](O)[C@H](O)[C@H]7O)[C@H]6O)C(C)(C)[C@@H]5CC[C@]43C)[C@@H]2C1 [Momordin Ic] | 2.6% | – |
| C=CCc1ccc(O)c(O)c1 [4-Allylcatechol] | 0% | – |
| CC(C)=CCc1c(-c2ccc(O)cc2O)oc2c(CC=C(C)C)c(O)cc(O)c2c1=O [Mulberrin] | 20.6% | – |
| C[C@@H](CC[C@@]1(O)O[C@H]2C[C@H]3[C@@H]4CC[C@@H]5C[C@@H](O[C@@H]6O[C@H](CO)[C@H](O)[C@H](O)[C@H]6O[C@@H]6O[C@H](CO)[C@@H](O)[C@H](O)[C@H]6O)CC[C@]5(C)[C@H]4CC[C@]3(C)[C@H]2[C@@H]1C)CO[C@@H]1O[C@H](CO)[C@@H](O)[C@H](O)[C@H]1O [Timosaponin BII] | 6.1% | – |
| COC(=O)C1=CC[C@@]23CC[C@@H]([C@@](C)(/C=C/C=C(\C)C(=O)O)OC2=O)[C@@]3(O)CC1 [Pseudolaric Acid C] | 9.7% | – |
| CC(=O)O[C@H]1[C@H]2[C@H]([C@@H]3[C@H]4OC(=O)[C@@](C)(O)[C@@]5(C)C(=O)C[C@@H](C)[C@@H]([C@@H]45)[C@@]3(C)[C@H]1OC(C)=O)[C@@H](OC(C)=O)C(=O)[C@H]1C[C@@H]3O[C@@H]3[C@H](OC(C)=O)[C@]21C [Taccalonolide C] | 10.3% | – |
| CC(C)c1ccc(C(=O)O)cc1 [4-Isopropylbenzoic acid] | 24.8% | – |
| CC1(C)CC[C@]2(C(=O)O)CC[C@]3(C)C(=CC[C@@H]4[C@@]5(C)C[C@@H](O)[C@H](O)C(C)(C)[C@@H]5CC[C@]43C)[C@@H]2C1 [Maslinic acid] | 20.7% | – |
| COc1c(O[C@@H]2O[C@H](CO)[C@@H](O)[C@H](O)[C@H]2O)cc2oc(-c3ccc(O)cc3)cc(=O)c2c1O [Homoplantaginin] | 0% | – |
| N#C/C=C1/C=C[C@@H](O)[C@H](O)[C@H]1O[C@@H]1O[C@H](CO)[C@@H](O)[C@H](O)[C@H]1O [Lithospermoside] | 8% | – |
| Nc1nc2c(ncn2[C@@H]2O[C@H](COP(=O)(O)OP(=O)(O)OC3O[C@H](CO)[C@@H](O)[C@H](O)[C@@H]3O)[C@@H](O)[C@H]2O)c(=O)[nH]1 (stereo partly drawn) [GDP-D-mannose (disodium)] | 10.7% | – |
| CCCCCCCCCCCCCCCCCCC(=O)O [Nonadecanoic acid] | 0% | – |
| COc1cc2c(c(OC)c1OC)C(=O)c1c(cc(C)c(O)c1OC)C2=O [Chrysoobtusin] | 21.3% | – |
| OC[C@H]1O[C@@H](n2cnc3c(O)nc(O)nc32)[C@H](O)[C@@H]1O [Xanthosine] | 9.5% | – |
| C[C@H]1O[C@@H](O[C@@H]2CC[C@@]3(C)[C@@H](CC[C@]4(C)[C@@H]3C=C[C@]35OC[C@@]6(CCC(C)(C)C[C@H]63)[C@@H](O)C[C@]54C)[C@@]2(C)CO)[C@H](O)[C@@H](O)[C@H]1O (stereo in doubt) [Prosaikogenin G] | 4.4% | – |
| CCCCCCCCCCCCCCCCCCCCCCCCC [Pentacosane] | 17.1% | – |
| CC(=O)OCC(=O)[C@@]1(O)CC[C@H]2[C@@H]3CCC4=CC(=O)C=C[C@]4(C)[C@@]3(Cl)[C@@H](Cl)C[C@@]21C [Dichlorisone acetate] | 17.4% | – |
| C=C1CC[C@@H]2[C@](C)(CO)[C@H](O)CC[C@@]2(C)[C@@H]1CCC1=CCOC1=O [Deoxyandrographolide] | – | 12.8% |
| O=C(O)CCCCCCCC(=O)O [Azelaic acid] | 39.6% | – |

| SMILES | 229E Inhibition rate | 229E Inhibition rate (229E Inhibition rate, 24 h) |
| --- | --- | --- |
| COc1ccc(-c2cc(=O)c3c(O)c(OC)c(OC)cc3o2)cc1O [Eupatorin] | 27.4% | – |
| O=C1Cc2cc(O)ccc2N1 [5-Hydroxyoxindole] | 7.7% | – |
| CCCCCCCCCCCCCCCC(=O)OC/C=C(C)/C=C/C=C(C)/C=C/C1=C(C)CCCC1(C)C [Retinyl palmitate] | 11.4% | – |
| CC(=O)OC/C=C/c1ccccc1 [Cinnamyl acetate] | 30% | – |
| CN1c2ccccc2C(=O)N2CCc3c([nH]c4ccccc34)C21 (racemic) [(±)-Evodiamine] | 18.7% | – |
| O=C[C@H](O)[C@@H](O)[C@H](O)[C@H](O)C(=O)O [D-Glucuronic acid] | 57.5% | – |
| CCc1ccc(O)cc1 [4-Ethylphenol] | 20.1% | – |
| CC(=O)OCC(=O)[C@@]1(O)CC[C@H]2[C@@H]3CCC4=CC(=O)CC[C@]4(C)[C@H]3[C@@H](O)C[C@@]21C [Hydrocortisone acetate] | 20% | – |
| CC(=O)O[C@@H]1[C@@H](O)[C@H](O[C@H]2CC[C@]34C[C@]35CC[C@]3(C)[C@@H]([C@@]6(C)CC[C@@H](C(C)(C)O)O6)[C@@H](O)C[C@@]3(C)[C@@H]5C[C@H](O[C@@H]3O[C@H](CO)[C@@H](O)[C@H](O)[C@H]3O)[C@H]4C2(C)C)OC[C@H]1O [Isoastragaloside II] | 45.1% | – |
| COC(=O)c1cc(OC)c(OC)c(OC)c1 [Methyl 3,4,5-trimethoxybenzoate] | 6.6% | – |
| Cc1ccc2ccc(=O)oc2c1 [7-Methylcoumarin] | 12.4% | – |
| COc1cc(C)c2c(=O)cc(C[C@@H](C)O)oc2c1[C@@H]1O[C@H](CO)[C@@H](O)[C@H](O)[C@H]1OC(=O)/C=C/c1ccc(O)cc1 [Aloeresin D] | 14.9% | – |
| Nc1nc(N)nc(N)n1 [Melamine] | 5.4% | – |
| CCCCCCCCCCCCCCCO [1-Pentadecanol] | 11.4% | – |
| CC(C)CCCO [4-Methyl-1-pentanol] | 20.1% | – |
| O=c1cc(-c2ccccc2)oc2c(O)c(O)ccc12 [7,8-Dihydroxyflavone] | 38% | – |
| COc1ccc([C@@H]2CC(=O)c3c(O)cc(O)cc3O2)cc1O [Hesperetin] | 11% | – |
| O=C1O[C@H]([C@H](O)CO)C(O)=C1O [Erythorbic acid] | – | 11% |
| C[C@@]12C[C@@]3(O)O[C@@H](O1)[C@]1(COC(=O)c4ccc(O)cc4)[C@H]3C[C@@]12O[C@@H]1O[C@H](COC(=O)c2ccccc2)[C@@H](O)[C@H](O)[C@H]1O [Benzoyloxypaeoniflorin] | 6.6% | – |
| O=C(O)Cc1cccc(O)c1 [3-Hydroxyphenylacetic acid] | 11% | – |

Arranged by molecular weight (high to low): some entries from above

| SMILES | 229E Inhibition rate | 229E Inhibition rate (229E Inhibition rate, 24 h) |
| --- | --- | --- |
| O=C[C@H](O)[C@@H](O)[C@H](O)[C@H](O)C(=O)O [D-Glucuronic acid] | 57.5% | – |
| CC(=O)OC/C=C/c1ccccc1 [Cinnamyl acetate] | 30% | – |
| Cc1ccc2ccc(=O)oc2c1 [7-Methylcoumarin] | 12.4% | – |
| O=C(O)Cc1cccc(O)c1 [3-Hydroxyphenylacetic acid] | 11% | – |

More entries

| SMILES | 229E Inhibition rate | 229E Inhibition rate (229E Inhibition rate, 24 h) |
| --- | --- | --- |
| N[C@@H](CCC[C@H](N)C(=O)O)C(=O)O [2,6-Diaminoheptanedioic acid] | 16.6% | – |
| C=C1[C@H](OC(=O)/C=C(\C)CC)C[C@@H](C(C)C)[C@@H]2[C@@H]([C@@H](C)OC(C)=O)C(=O)C[C@@H]12 [Tussilagone] | 14.3% | – |
| O=P(O)(O)O[C@H]1O[C@H](CO)[C@@H](O)[C@H](O)[C@H]1O [α-D-Glucose-1-phosphate (disodium hydrate)] | 17.2% | – |
| O=C1C[C@@H](c2ccccc2)Oc2cc(O)cc(O)c21 [Pinocembrin] | 31.1% | – |
| N[C@H]1[C@H](O[C@H]2[C@H](O)[C@@H](N)[C@H](O[C@H]3[C@H](O)[C@@H](N)[C@H](O[C@H]4[C@H](O)[C@@H](N)[C@H](O[C@@H]([C@H](O)[C@@H](N)C=O)[C@H](O)CO)O[C@@H]4CO)O[C@@H]3CO)O[C@@H]2CO)O[C@H](CO)[C@@H](O)[C@@H]1O [Chitopentaose (pentahydrochloride)] | 15.4% | – |
| C=C1C(=O)O[C@H]2C[C@@H](C)[C@@H]3C=CC(=O)[C@@]3(C)[C@@H](OC(C)=O)[C@H]12 [Bigelovin] | 4.5% | – |
| C[C@H]1[C@H]2[C@H](O[C@@H]3O[C@H](CO)[C@@H](O)[C@H](O)[C@H]3O)OC=C(C(=O)O)[C@H]2C[C@@H]1O [8-Epiloganic acid] | 16.3% | – |
| CC1=NCC[C@@H](C(=O)O)N1 [Ectoine] | 11.8% | – |
| Oc1cccc2ccccc12 [1-Naphthol] | 14.6% | – |
| COC(=O)/C=C/c1ccc(O)cc1 [Methyl p-coumarate] | – | 15.5% |
| O=C1O[C@H]([C@@H](O)CO)C(O)=C1OP(=O)(O)O [L-Ascorbic acid 2-phosphate (trisodium)] | 10.8% | – |
| C[C@H](O)CO [(S)-(+)-1,2-Propanediol] | 27% | – |
| COC(=O)c1cc(O)c(O)c(OC)c1 [Methyl 3-O-methylgallate] | 23.6% | – |
| O=C1C[C@@H](O[C@@H]2O[C@H](CO)[C@@H](O)[C@H](O)[C@H]2O)CO1 [Kinsenoside] | 14.3% | – |
| CC(C)C[C@@H](N)C(=O)O [D-Leucine] | 7.1% | – |
| CCCCCCCCC/C=C/C(=O)CCc1ccc(O)c(OC)c1 [[10]-Shogaol] | 9.6% | – |
| C[n+]1c2n(c(=O)c3ccccc31)CCc1c-2[nH]c2ccccc12 [Dehydroevodiamine (hydrochloride)] | 28.8% | – |
| CO[C@H]1C[C@H](O[C@H]2[C@H](C)O[C@@H](O[C@@H]3/C(C)=C/C[C@@H]4C[C@@H](C[C@]5(C=C[C@H](C)[C@@H](C6CCCCC6)O5)O4)OC(=O)[C@@H]4C=C(C)[C@@H](O)[C@H]5OC/C(=C\C=C\[C@@H]3C)[C@]54O)C[C@@H]2OC)O[C@@H](C)[C@@H]1O [Doramectin] | 25.8% | – |

From article PMC12431657, “Discovery and mechanistic insights of dibenzoylmethane as a broad spectrum inhibitor of coronavirus” (PLOS Pathogens, 2025)
